Consider 2 molecules from US20210340278A1.

The chains behind the UniProt entries cited, without tags or fusion partners. Residues count along the entry.
UniProt Q15363, residues 21-201: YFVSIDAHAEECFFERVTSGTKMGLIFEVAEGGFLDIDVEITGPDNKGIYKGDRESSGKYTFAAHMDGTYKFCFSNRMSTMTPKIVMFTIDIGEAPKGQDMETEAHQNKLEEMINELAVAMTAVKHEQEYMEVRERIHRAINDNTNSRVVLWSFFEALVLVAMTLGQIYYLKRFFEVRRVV

Assay [1] concerns the target TMED2, human (human) (UniProt Q15363). Nature of the assay: co-immunoprecipitation from HEK293T cells, control or treated with tunicamycin.
The target is the same in assay [2]. Nature of the assay: co-immunoprecipitation, AGR2 WT compared with AGR2 AA.
In assay [3] the target is T1, Anterior gradient 2 (AGR2), human, wild type (human), O95994.
T1 chain: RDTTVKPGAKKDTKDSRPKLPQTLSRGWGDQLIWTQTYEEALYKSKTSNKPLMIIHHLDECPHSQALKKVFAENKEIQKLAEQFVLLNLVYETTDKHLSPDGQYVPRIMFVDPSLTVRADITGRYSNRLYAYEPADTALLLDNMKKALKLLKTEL
In words: DSP chemical cross-linking in cells, Western blot under non-reducing or reducing conditions, AGR2 siRNA control. Particulars: remark: other sources report otherwise. On the technique in general: Immunoblotting shows a protein as a band on a membrane.

These are yes or no findings as the source states them, for the method shown. For part of these data: Binding seen in cells or lysates may run through a third protein. Some results given as binding are weak or reduced against the parent protein; the word gives no strength.

As to “Anterior gradient 2 (AGR2), human, wild type (from UniProt O95994 21-175)”, the binding entry in assay [1] and in assay [2] was “binds” throughout.

B1: Anterior gradient 2 (AGR2), human, wild type, O95994 21-175 (protein)
chain: RDTTVKPGAKKDTKDSRPKLPQTLSRGWGDQLIWTQTYEEALYKSKTSNKPLMIIHHLDECPHSQALKKVFAENKEIQKLAEQFVLLNLVYETTDKHLSPDGQYVPRIMFVDPSLTVRADITGRYSNRLYAYEPADTALLLDNMKKALKLLKTEL
Consider B1, for which the binding result in assay [3] is “binds”.
